According to article PMC5436826, “The PET and LIM1-2 domains of testin contribute to intramolecular and homodimeric interactions” (PLoS ONE, 2017):
No constants are given. Whether binding was seen depends on the method and setting. A result given as binding can be weak or reduced; the word gives no strength. Sequences can lack the tags named with a protein.

Columns and labels:
[1] = biological target: GST-LIM1-2 of testin (first 2 LIM domains, coupled to a HIS tag) (human); test: pull-down; GST-tagged bait immobilised on glutathione sepharose (25 μl), 5 μg untagged prey in solution, 2 h at 4°C in buffer A (25 mM Hepes pH 7.6, 150 mM NaCl, protease inhibitors); three washes; resin analysed by Western blot or Coomassie; both purified
[2] = biological target: GST-LIM1-3 of testin (human); test: as above

| Binder | binding [1] | binding [2] |
| --- | --- | --- |
| untagged PET^52-199 of testin (amino acids 52-199) (domain or fragment, UniProt Q9UGI8-1 52-199) DVLLSNEEDRKVGKLFEDTKYTTLIAKLKSDGIPMYKRNVMILTNPVAAKKNVSINTVTYEWAPPVQNQALARQYMQMLPKEKQPVAGSEGAQYRKKQLAKQLPAHDQDPSKCHELSPREVKEMEQFVKKYKSEALGVGDVKLPCEMD | no binding (tested: 5 μg prey) | no binding (tested: 5 μg prey) |
| untagged PET^52-233 of testin (amino acids 52-233) (domain or fragment, UniProt Q9UGI8-1 52-233) DVLLSNEEDRKVGKLFEDTKYTTLIAKLKSDGIPMYKRNVMILTNPVAAKKNVSINTVTYEWAPPVQNQALARQYMQMLPKEKQPVAGSEGAQYRKKQLAKQLPAHDQDPSKCHELSPREVKEMEQFVKKYKSEALGVGDVKLPCEMDAQGPKQMNIPGGDRSTPAAVGAMEDKSAEHKRTQ | binds | binds |

Continued, values first:

| binding [1] | binding [2] | Binder |
| --- | --- | --- |
| no binding (tested: 5 μg prey) | no binding (tested: 5 μg prey) | untagged PET^92-199 of testin (amino acids 92-199) (domain or fragment, UniProt Q9UGI8-1 92-199) MILTNPVAAKKNVSINTVTYEWAPPVQNQALARQYMQMLPKEKQPVAGSEGAQYRKKQLAKQLPAHDQDPSKCHELSPREVKEMEQFVKKYKSEALGVGDVKLPCEMD |
| no binding (tested: 5 μg prey) | no binding (tested: 5 μg prey) | untagged PET^92-233 of testin (amino acids 92-233) (domain or fragment, UniProt Q9UGI8-1 92-233) MILTNPVAAKKNVSINTVTYEWAPPVQNQALARQYMQMLPKEKQPVAGSEGAQYRKKQLAKQLPAHDQDPSKCHELSPREVKEMEQFVKKYKSEALGVGDVKLPCEMDAQGPKQMNIPGGDRSTPAAVGAMEDKSAEHKRTQ |
